Literature values as cited in patent publication US10646496B2, “Joint application of statin and adrenocortical hormone for treating chronic subdural hematoma” (priority 2016, dated 2020).
At least one compound was matched to its structure with a doubt left.

Test system: chronic subdural hematoma
Conditions: postoperative dexamethasone vs no dexamethasone; cited from earlier work

For `C[C@@H]1C[C@H]2[C@@H]3CCC4=CC(=O)C=C[C@]4(C)[C@@]3(F)[C@@H](O)C[C@]2(C)[C@@]1(O)C(=O)CO` [dexamethasone], the “reduction of death risk” value is listed as 3 folds.
